Where two headings read alike, the source gives them in different places. Some entries share one result that the patent states for a list of compounds. At least one compound was matched to its structure with a doubt left.
Key:
[1] = cited from earlier work
[2] = Cumulative drug release from silk spheres in PBS; format: physicochemical; settings: PBS pH 7.4, room temperature
Procedure: Silk spheres loaded with model drugs as described in Example 5 were lyophilized. 10 mg of lyophilized silk spheres were suspended in 1 ml of PBS buffer, pH 7.4. The samples were incubated at room temperature under slow shaking condition. A cumulative drug release profile at each different time point (1, 4, 8.5, 24, 48, 120, 192, 342 hr) was determined by following the steps of (a) centrifuging the samples at 12,000 rpm for 10 min with a Sigma ISS-113 microcentrifuge (Sigma Chemical Co., St. Louis, Mo.); (b) carefully transferring the supernatants to empty tubes, subjecting the collected supernatants to the absorbance measurement at a wavelength of 555 nm, calculating the amount of model drug based on a standard curve, and comparing the data at the current time point with the original amounted drug loaded in the spheres; (c) suspending the precipitated pellets in 1 ml of PBS buffer; and (d) repeating the steps of (a)-(c) at each time point to obtain a cumulative drug release profile. For each model drug, at least three samples were prepared in order to obtain a standard deviation.

[3] = Film, Air-dry and Post-treatment

Row | Compound | In vitro drug release [1, 3] | In vitro drug release ([1]; Layer-by-layer coatings, Coat substrate) | total loading released within 2 weeks [2]
1 | lysozyme | >4 weeks | – | –
2 | Dextran | >4 weeks | – | –
3 | CCN(CC)c1ccc2c(-c3ccccc3C(=O)O)c3ccc(=[N+](CC)CC)cc-3oc2c1.[Cl-] [RhB, rhodamine B] | – | >2 weeks | less than 5%
